{"source": "patent US20120318262A1", "about": "(priority 2011, published 2012)", "key": {"C57Bl/6 mice": {"test_system": "C57Bl/6 mice", "conditions": "male, mouse, in vivo", "excerpt": "FIGS. 5A-D. Mouse MI model. Representative mouse EKG tracings pre (FIG. 5A) and post (FIG. 5B) coronary artery ligation. […] Arrows mark lateral and posterior left ventricle (LV). LVIDD, LVIDS=LV internal diameter at systole and […], respectively. RV=right ventricle. […] Cardiac dimensions were obtained from 2-D guided M-mode images (100 frames/sec) and were read blinded using short axis and a parasternal long-axis views with the leading edge method. All echo measurements were averaged over 3 consecutive beats on unsedated mice at 7 and 30 days after infarction. Statistical significance assessed by the Wilcoxon rank sum test.\nVentricular remodeling and cardiac functional parameters will be assessed by echo.\nMammalian cardiomyocytes irreversibly withdraw from the cell cycle soon after birth and undergo terminal differentiation. […] Therefore, cardiac injury causes permanent myocardial loss and cardiac dysfunction. […] Proliferation was assessed by immunostaining for Ki-67."}, "mice": {"test_system": "mice", "conditions": "levels high enough to achieve Wnt-inhibitory plasma levels"}}, "data": [{"smiles": "Cc1cc(/C=C/c2ccc3cc(N(C)C)ccc3[n+]2C)c(C)n1-c1ccccc1", "note": "[pyrvinium, 6-(Dimethylamino)-2-[2-(2,5-dimethyl-1-phenyl-1H-pyrrol-3-yl)ethenyl]-1-methylquinolinium]", "values": [{"measurement": "mice with lethal toxicity, died within the first 24 hours", "setting": "C57Bl/6 mice", "value": 15}, {"measurement": "toxicity after IV or IP injection", "setting": "mice", "value": "death within 24-48 hours in most mice"}]}]}
